These are yes or no findings as the source states them, for the method shown.

This test addresses SeMet-substituted PAS1 (L71M) (residues 43–168) (Pseudomonas putida F1) (UniProt A5W4E3). Put plainly: crystal structure; PAS1(43–168) apo, with 1,2,4-TMB, and SeMet L71M with toluene; sitting or hanging drop, 2.8–3.0 M ammonium phosphate, 0.1 M Tris-HCl pH 8.0–8.5, 21 °C; two molecules in the asymmetric unit; both purified.

B1: SeMet-substituted PAS1 (L71M) (residues 43–168) (domain or fragment, UniProt A5W4E3 43-168)
chain: LYEFVGLLDAHGNVLEVNQVALEGGGITMEEIRGKPFWKARWWQISKKTEATQKRLVETASSGEFVRCDVEILGKSGGREVIAVDFSLLPICNEEGSIVYLLAEGRNITDKKKAEAMLALKNQELE
modifications: selenomethionine (SeMet-substituted)
Turning to B1, the binding result is recorded as “no binding”.

The record behind these values is publication PMC4861429, “Molecular Insights into Toluene Sensing in the TodS/TodT Signal Transduction System” (The Journal of Biological Chemistry, 2016).
